Results as given in the supplement of paper PMC5949888.
Most values lie at the floor of the assay. Slopes are relative: functional sequences can read slightly below zero.

What follows are substances tested on Saccharomyces cerevisiae PS128 hsf1 delta, HSF1(1-493) fusion (assay: growth estimate (transactivation domain function in HSF1 fusion, heat-shock survival) (a.u. (slope of normalised read count over time)); higher = stronger growth at 37°C, i.e. more transactivation activity). Conditions: library: random library.

Substance	growth estimate
STLRHLRS	< -0.25
AHIA	< -0.25
FVNFGDLFSISKLGSLCQRV	< -0.25
EEDV	< -0.25
RIYR	< -0.25
RFDVEGTYHGCSGSVERSIW	< -0.25
YDTLSRGLLPGHELNGLMRR	< -0.25
VMIAVAVGNW	< -0.25
RDTHNVSPALARRWTRVVTR	< -0.25
GMISGTELSLVMHVNS	< -0.25
SKPVIVDTSRP	< -0.25
GHSYAHTGVEYTSLYRGLNR	-0.246
LHHFRFRVSMRHRHLMERRR	< -0.25
ESFSC	< -0.25
SFQEPPRPVNYSN	< -0.25
TGENLETTNMEDLRWCCSDT	< -0.25
SIDEKSIDAMAGNVSVEREV	< -0.25
RAGTRHEKALLSDGQRPRST	< -0.25
GVHCWLPLQSCVWQ	< -0.25
NLLV	< -0.25
GVGRIGLISQVLPRVHEGRP	-0.243
PSYSPHGLYFSYDLAPLTRL	< -0.25
RSALVPLPSMHGRRRWCIAP	< -0.25

Substance	growth estimate
GGMPREQAHGTRFSSVSDAP	< -0.25
HGQCSAGSRWHSDANVRMPG	< -0.25
IGECGPSLYGLGLRTVKYSL	< -0.25
ASGEARLPRGQMHVAYRPLQ	< -0.25
TRLLFGVLPNFRAKC	< -0.25
ASAPEEGGMDDRGQEYLGQM	-0.246
LGIGLSWCLGNRYVE	-0.149
NVIVILRNEYDNCLR	< -0.25
VSYVACT	< -0.25
IRLHFHSFVSVM	< -0.25
NLMGLQLVT	< -0.25
CEGLV	< -0.25
LIESETHVIDKRCG	< -0.25
RANLGSVLLSRDS	-0.148
RQYTALQRHTSTVPCQVRNQ	< -0.25
PLPHGRRRLGGGQAA	< -0.25
ASFPRRPLKNELLLI	< -0.25
SWQGLVSPVELKCL	< -0.25
LEDSEHVFWSPMTLGRLNPQ	< -0.25
CGVDKALLKRPVELTRQGGI	< -0.25
EVCKPEQKFRQC	< -0.25
DRDLIDLTGRGI	< -0.25
IIWTFGLTRSAPNVFREAIR	< -0.25

Substance	growth estimate
LYPL	< -0.25
ATPAG	< -0.25
QIIPGEESSWLAMRKTGRKQ	< -0.25
NRSIRSVWHTT	< -0.25
AAVHGLHVGRF	< -0.25
WSLGCLRPTGLQ	< -0.25
MFTKGLDGRLRPKRHEGAWW	< -0.25
NQLRTANQYGGCVSMGNRAW	< -0.25
TQVRWRSRLP	< -0.25
AEKVLKYMTLRWTSLA	< -0.25
IVPRVMPARPVRMV	< -0.25
KGRSGRSDATKEAID	< -0.25
TFANLPLYAVTRVRSPL	< -0.25
MFAICRVIVV	-0.197
QRVRAT	< -0.25
TVTRIAF	< -0.25
RLT	-0.2
NDRTCKSEHSIPDNPPRTNI	< -0.25
KQCHPISETSAGTEIRSETP	< -0.25
GSLSYFPAVPEGSSGTLGAG	< -0.25
RCFQLLHALA	< -0.25
SGATEHLHLNMGIAWAMRIH	< -0.25
AAADAHCGRQQAVQ	< -0.25

Pulled one by one from the entries so far (five):
Substance	growth estimate
KGRSGRSDATKEAID	< -0.25
QRVRAT	< -0.25
WSLGCLRPTGLQ	< -0.25
LYPL	< -0.25
GSLSYFPAVPEGSSGTLGAG	< -0.25

Exported as comma-separated lines: entries from further up.
Substance,growth estimate
QIIPGEESSWLAMRKTGRKQ,< -0.25
NRSIRSVWHTT,< -0.25
AAVHGLHVGRF,< -0.25
WSLGCLRPTGLQ,< -0.25
MFTKGLDGRLRPKRHEGAWW,< -0.25

Next part

Substance	growth estimate
LNRPECLKLGTHGNMRALET	< -0.25
TGWCGDADWMTF	< -0.25
LCVLCTHGCTPPLV	-0.25
SVGNKLSVMRIMVSGFRYSN	< -0.25
SNLGTDG	< -0.25
NGKLCPG	< -0.25
LCICKELLRHSLDSLKPWEQ	< -0.25
CNATGCSN	< -0.25
TGTSAEVAVRWVASRHA	< -0.25
KIRS	< -0.25
SHSSR	< -0.25
ETGL	-0.248
KCSGAYLVRVCRYLGGGLFG	< -0.25
NETAMGFPELPGSPLPVRCT	< -0.25
WAGRDQSGLGMIVSGSLRES	< -0.25
KSGRDLYVAGIAKIASPCGR	< -0.25
QILT	< -0.25
HMLGLRSFVRAE	< -0.25
KFVNVRRCTHSPRVDAPREP	< -0.25
FYQQDSSIAAGRQLIPGMIG	< -0.25
FLLHQESSF	< -0.25
LNIDRRIGP	< -0.25
RSENYLAGGTGIAAVC	< -0.25

Substance	growth estimate
LAGRFW	< -0.25
RNTGAGQERASKGLTLRERL	< -0.25
SYHFTRGCKSAFPG	< -0.25
IFRTRQRIRGTPTQVAFRYL	< -0.25
VSRAGWAEDRREVHCRLALL	< -0.25
LALDKKIRSLVHLNTTYKQQ	< -0.25
SILLYVSIGFQ	< -0.25
SGGPFSFQSMTRTGLRRRRS	< -0.25
WYWADSCFHRETPGYQQQVG	< -0.25
DCIHRKVIRLEQL	< -0.25
SGRSLMVPGNSSQ	< -0.25
SEREVPTVFVARRASSLNQG	-0.229
KTESPLGS	< -0.25
RIS	< -0.25
FRKVIPRGRYCDWRSEMTAE	< -0.25
CRKRPIDLGNSRLG	< -0.25
VNQDGFRRAHIFRGRPNLPM	< -0.25
TLNCA	< -0.25
KRRLSGQT	< -0.25
PGRMSWSMLRGGWS	< -0.25
GYASSRCIGISYYATSHLDH	< -0.25
ETSESATSVLLRVHTNPSGP	< -0.25
KDRGRKASFTRTAQTLDPPE	< -0.25

Substance	growth estimate
ESNRRLARGGNSGKKNF	< -0.25
PIRITYETCTKSRWLPA	< -0.25
DFGWSDRQV	-0.245
GNPSARRHILLIKSFRSLSK	< -0.25
RQPELLPTLTIDRAAMD	< -0.25
RTSDHSADVAICLCLGPSTW	< -0.25
QRWITGSFLSSAYENVCGYE	< -0.25
QGWFGDSDLNRDWDVVRLTP	< -0.25
KPQRKILS	< -0.25
IRDVLLHGIALIFMRLENGV	< -0.25
VVSGDPEAVRTLGSSPRWPA	< -0.25
WGLTRSFRK	< -0.25
EGMGLYEPWSWFPVGLCEG	< -0.25
LWVVPETQ	< -0.25
FGESTTYVRSRHRWSITKET	< -0.25
VQKYTSRWDL	< -0.25
RTRDLVQRST	< -0.25
KVGLTRICSEAPDLWPLPRY	< -0.25
ECSHSPVLLPNKRMRTNTYK	< -0.25
ERLVRQLKTLSNVYEIIAKG	< -0.25
PVVSPDGLGWAPYLDRPGAY	< -0.25
REKQSFPFRS	< -0.25
VSSQPCFPAR	< -0.25

Substance	growth estimate
LLGGGSLGIANHGRNLFPDS	< -0.25
VWRICG	< -0.25
KSGSDSLWGMVTVASVSVWP	< -0.25
CRMACCWSEQYKYG	< -0.25
IFAGLRTPSSTLHSVS	-0.243
EVH	< -0.25
DNRNADL	-0.248
ACTSGYANREAASSNLEDAL	< -0.25
CGLAS	< -0.25
DFLTRVATDTPVAVQEPAPE	< -0.25
IEQGTISGPRALMTLSTTNP	< -0.25
QKSQSELMECIRSLFQWCWI	< -0.25
FLMRKK	< -0.25
TPPES	< -0.25
LVGMLESVCGWCSQVESRVG	< -0.25
GINTVTC	< -0.25
LFSR	< -0.25
RFAAVGESCAYSGGYRT	< -0.25
RRTRATSLYNRGLMVHQ	< -0.25
GFSPTLRPVNPRRNKYVVRS	< -0.25
